In patent US10064838B2, “Method for treating tau-associated diseases using tetrahydropyranol derivatives” (NATIONAL TAIWAN NORMAL UNIVERSITY, priority 2016, dated 2018):
Some results were stated once for a whole list of compounds, not compound by compound. Some compounds share one range, which may span the group rather than tell each member.

Tests used:
[1] = test system: ΔK280 tauRD-DsRed SH-SY5Y cells; assay: Neurite growth in induced ΔK280 tauRD-DsRed SH-SY5Y cells; type: cell-based, human; conditions: 10 μM, 8 h pretreatment, Dox 7 days, retinoic acid-differentiated
Method: ΔK280 tauRD-DsRed SH-SY5Y tauRD-DsRed cells were seeded in 6-well plate (1×10^5/well) in a medium containing all-trans retinoic acid (10 μM), grown for 24 h, and pretreated with 10 μM of congo red, compound (A), compound (B), and compound (C) for 8 h; after which, ΔK280 tauRD-DsRed expression was induced with 1 μg/mL doxycycline for 7 days. The cells were then fixed in 4% paraformaldehyde, permeabilized with 0.1% Triton X-100, blocked in 3% BSA, stained with the primary antibody anti-TUBB3 (against neuronal Class III β-tubulin) (1:1000; Convance) and with a secondary anti-rabbit Alexa Fluor® 555 antibody (1:500; Molecular Probes), and then incubated at room temperature for 3 h. Nuclei were counterstained with 4′,6-diamidino-2-phenylindole (DAPI). The total outgrowth in the untreated cells, cells treated with congo red, compound (A), compound (B), and compound (C) were assessed using MetaMorph image acquisition and analysis software.

[2] = test system: ΔK280 tauRD-DsRed 293 cells; assay: ROS level (DCFH-DA, flow cytometry) in induced ΔK280 tauRD-DsRed 293 cells; type: cell-based, human; conditions: 10 μM, 8 h pretreatment, Dox 3 days
Method: ΔK280 tauRD-DsRed 293 cells were seeded into 12-well plates, grown for 24 h, and pretreated with 10 μM of congo red, compound (A), compound (B), and compound (C) respectively for 8 h. Then, doxycycline (1 μg/mL) was added for 3 days to induce ΔK280 tauRD-DsRed expression.
Next, uninduced cells, doxycycline-induced but compound-untreated cells, and doxycycline-induced and compound-treated cells were incubated with 2′,7′-dichlorodihydrofluorecein diacetate (DCFH-DA) in 37° C. for 30 minutes, and then washed with PBS. The excited green fluorescence intensity under 492-495/517-527 nm of excitation/emission wavelength was measured using flow cytometry (BD) to evaluate the ROS level.

| SMILES | neurite growth (uninduced cells 100%; induced untreated 89%) [1] | ROS level (uninduced cells 100%; induced untreated 110%) [2] |
| --- | --- | --- |
| CCOC(=O)[C@@H]1OC(O)[C@H](C)[C@@H](c2cccs2)[C@@H]1[N+](=O)[O-] (stereo partly drawn) [compound (B)] | 98-99% | 94-95% |
| CCOC(=O)[C@@H]1OC(O)[C@H](C)[C@@H](c2ccccc2)[C@@H]1[N+](=O)[O-] (stereo partly drawn) [compound (C)] | 98-99% | 94-95% |
| CCOC(=O)[C@@H]1OC(O)[C@H](C)[C@@H](c2ccc(OC)cc2)[C@@H]1[N+](=O)[O-] (stereo partly drawn) [compound (A)] | 98-99% | 94-95% |
